Our source for the binding values is PMC5650148, “Ssn6-Tup1 global transcriptional co-repressor: Role of the N-terminal glutamine-rich region of Ssn6” (PLoS ONE, 2017).

Protein sequences, listed by entry. Tags and fused reporters are not part of them. Residues count along the entry.
UniProt P16649, residues 1-72: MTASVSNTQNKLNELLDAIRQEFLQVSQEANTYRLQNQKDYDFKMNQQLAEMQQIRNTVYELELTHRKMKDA

No constants are given. Whether binding was seen depends on the method and setting.

The target of assay [1] is Tup1 N72, the Ssn6-interaction and Tup1 oligomerization domain (yeast) (UniProt P16649). The assay is described as follows: two-hybrid; LexA hybrids as DNA-binding baits, Vp16 or Gal4 activation domain hybrids as preys; wild-type yeast strain; lacZ reporter JK103 with four LexA operators upstream of the GAL1 TATA element; beta-galactosidase activity in Miller units, average of at least three transformants.

The target in assay [2] is Ssn6 Sc3T (N175), the 175 amino-terminal residues of Ssn6 (yeast) (UniProt P14922). Described as above.

B1: Ssn6 Δ45 (amino acids 46-181), Vp16 activation hybrid (domain or fragment, yeast, UniProt P14922 46-181, looked up)
chain: AETWLSIASLAETLGDGDRAAMAYDATLQFNPSSAKALTSLAHLYRSRDMFQRAAELYERALLVNPELSDVWATLGHCYLMLDDLQRAYNAYQQALYHLSNPNVPKLWHGIGILYDRYGSLDYAEEAFAKVLELDP
notes: Ssn6 (also known as Cyc8), yeast, amino acids 46-181; lacks the entire NTpolyQ tail (1-45); the four N-terminal TPRs; also called Ssn6 Δ45-Vp16; Ssn6 Δ45-Vp1; source: yeast two-hybrid fusion (YEp92)
Consider B1, for which the binding entry in assay [1] is “no binding”.

B2: Ssn6 Sc3T (N175), the 175 amino-terminal residues of Ssn6 (domain or fragment, yeast, UniProt P14922 1-175, looked up)
chain: MNPGGEQTIMEQPAQQQQQQQQQQQQQQQQAAVPQQPLDPLTQSTAETWLSIASLAETLGDGDRAAMAYDATLQFNPSSAKALTSLAHLYRSRDMFQRAAELYERALLVNPELSDVWATLGHCYLMLDDLQRAYNAYQQALYHLSNPNVPKLWHGIGILYDRYGSLDYAEEAFAK
notes: Ssn6 (also known as Cyc8), yeast, the 175 amino-terminal residues: NTpolyQ tail and TPRs 1 to 3; One molecule stands for both two-hybrid forms of the same fragment: LexA-Sc3T as bait and Sc3T-Vp16 as prey; A chain carries either LexA or Vp16, never both; The LexA form was also used in the repression assay; also called LexA-Ssn6 Sc3T; LexA-Sc3T (N175); source: yeast two-hybrid fusion (LexA hybrid …)
As to B2, the binding entry in assay [2] is “no binding”.
